Test: Log of liquid dish neat product liquid-air partition coefficient
Format: physicochemical
Conditions: code letters K/L of the Comment Code

## O=C(c1ccccc1)c1ccccc1 [Material 655]
  Log of liquid dish neat product liquid-air partition coefficient (Comment Code): K (Log of liquid dish neat product liquid-air partition coefficient greater than or equal to 7)
